Measurements taken from US12344599B2, “Prodigiosin analogs and methods of use” (Institute For Cancer Research, priority 2016, dated 2025).

Tested on: p53 target genes in HT29 cells
Test: RNA-Seq gene profiling with IPA analysis
Format: cell-based, human
Conditions: HT29, 1 μM for 24 hours
Description: Having confirmed that PG3-Oc induces apoptosis in multiple p53-expressing mutant cancer cell lines, whether this small molecule restored p53 pathway signaling was investigated in HT29 cells after treatment with 1 μM PG3-Oc for 24 hours. For this purpose, gene profiling was performed by RNA-Seq and bioinformatics analysis, such as IPA (Ingenuity pathway analysis), GSEA (gene set enrichment analysis) and GO (gene ontology) (See details at Methods and Materials). […] Key p53 target gene CDKN1A (p21) that negatively regulate cell cycle and other p53 target genes that regulate apoptosis such as, TNFRSF10B (DR5), BBC3 (PUMA), BIRC5 (Survivin), TP53INP1 (Teap) were identified in canonical p53 pathway analysis. […] To verify that the behavior of regulation of p53 target genes by PG3-Oc is similar to p53 protein, based on published data (Fischer, Oncogene, 2017, 36(28), 3943-3956), genes directly repressed (FIG. 89) and activated (FIG. 90) by the p53 transcription factor were selected. […] This implicates that PG3-Oc is able to restore the p53 pathway.

CCCCCCCCOC(=O)CCc1c(C)[nH]c(/C=C2\N=C(c3ccc[nH]3)C=C2OC)c1C [PG3-Oc, Octyl (Z)-3-(5-((4′-methoxy-1H,5′H-[2,2′-bipyrrol]-5′-ylidene)methyl)-2,4-dimethyl-1H-pyrrol-3-yl)propanoate]
number of down-regulated genes among 284 known p53 target genes: 24 genes
number of up-regulated genes among 284 known p53 target genes: 35 genes
